The list does not hold the whole screen: it gathers tests that were run many times, whatever their T/C, doses with no T/C, and many T/C values between a quarter and a half above the control. Other doses and runs of a compound stand elsewhere. T/C gives the treated animals as a percentage of the vehicle group. Some entries give survivors of the animals treated and no T/C: the source holds a T/C of zero for them, seemingly a mark for toxic or unscored doses. Some survivor counts are full or nearly so, which does not show that the dose was tolerated: the source hardly ever lists a survival T/C far under the control, and the zero likely stands for such cases as well. Counts of survivors are from the toxicity check (mostly the fifth day) where no day follows; animals may have died later. Schedule codes are those of the source, read here as Q, the interval in days (D) or hours (H), X, the number of doses. Some schedules carry Z or #; the key to these is not given. For survival time, the PubChem record calls one and a half times the control and up active, and a quarter to a half above the control has no call in these data; cut-offs in other NCI protocols can differ.
Test system: L1210 leukemia ip in BDF1 mice, survival T/C
Assay: NCI In Vivo Anticancer Drug Screen. Data for tumor model L1210 Leukemia (intraperitoneal) in B6D2F1 (BDF1) mice
Conditions: higher T/C = longer survival
[1] = T/C endpoint: mean survival time, dose: 100.0 mg/kg/injection, schedule: Q04DX003 (ip), vehicle: saline with Tween-80
[2] = T/C endpoint: mean survival time, dose: 200.0 mg/kg/injection, schedule: Q04DX003 (ip), vehicle: saline with Tween-80
[3] = T/C endpoint: mean survival time, dose: 400.0 mg/kg/injection, schedule: Q04DX003 (ip), vehicle: saline with Tween-80

`O=C(CCCN1CCC2(CC1)C(=O)NCN2c1ccccc1)c1cccs1` was tested, and the survivor count (T/C endpoint: mean survival time, dose: 25.0 mg/kg/injection, schedule: Q04DX003 (ip), vehicle: saline with Tween-80) was 2 of 6, the survivor count [1] was 1 of 6 and the survivor count [2] was 0 of 6. For the same compound, the survivor count [3] was 0 of 6.
In the case of `O=CN(N=O)c1ccccc1`, the survivor count (T/C endpoint: mean survival time, dose: 75.0 mg/kg/injection, schedule: Q01DX001 (ip), vehicle: other) is reported as 0 of 6 and the survivor count (T/C endpoint: mean survival time, dose: 150.0 mg/kg/injection, schedule: Q01DX001 (ip), vehicle: other) is reported as 3 of 6.
For `CN(C)c1ccc(N=NC#N)cc1`, the survivor count (T/C endpoint: mean survival time, dose: 12.5 mg/kg/injection, schedule: Q01DX009 (ip), vehicle: saline with Tween-80) was 0 of 3, the survivor count (T/C endpoint: mean survival time, dose: 25.0 mg/kg/injection, schedule: Q01DX009 (ip), vehicle: saline with Tween-80) was 0 of 3 and the survivor count (T/C endpoint: mean survival time, dose: 50.0 mg/kg/injection, schedule: Q01DX009 (ip), vehicle: saline with Tween-80) was 3 of 3. For the same compound, the survivor count (T/C endpoint: mean survival time, dose: 100.0 mg/kg/injection, schedule: Q01DX009 (ip), vehicle: saline with Tween-80) was 0 of 3 and the survivor count (T/C endpoint: mean survival time, dose: 200.0 mg/kg/injection, schedule: Q01DX009 (ip), vehicle: saline with Tween-80) was 0 of 3.
For `O=C(CCl)N(c1ccccc1)c1ccccc1`, the survivor count (T/C endpoint: mean survival time, dose: 50.0 mg/kg/injection, schedule: Q04DX002 (ip), vehicle: Klucel (hydroxypropylcellulose) (HPC)) was 2 of 3, the survivor count (T/C endpoint: mean survival time, dose: 100.0 mg/kg/injection, schedule: Q04DX002 (ip), vehicle: Klucel (hydroxypropylcellulose) (HPC)) was 3 of 3 and the survivor count (T/C endpoint: mean survival time, dose: 200.0 mg/kg/injection, schedule: Q04DX002 (ip), vehicle: Klucel (hydroxypropylcellulose) (HPC)) was 0 of 3. For the same compound, the survivor count (T/C endpoint: mean survival time, dose: 400.0 mg/kg/injection, schedule: Q04DX002 (ip), vehicle: Klucel (hydroxypropylcellulose) (HPC)) was 0 of 3.
With `CN(Cc1cnc2nc(N)nc(N)c2n1)c1ccc(C(=O)NC(CCC(=O)O)C(=O)O)cc1C(F)(F)F` (stereo not given) the T/C (T/C endpoint: mean survival time, dose: 1.25 mg/kg/injection, schedule: Q01DX009 (ip), vehicle: sodium bicarbonate) was 126 % of control and the T/C (T/C endpoint: mean survival time, dose: 2.5 mg/kg/injection, schedule: Q01DX009 (ip), vehicle: sodium bicarbonate) was 136 % of control.
In the case of `CC1(C)N=C(N)N=C(N)N1c1cccc(CCCCOc2ccccc2)c1`, the survivor count [1] is reported as 1 of 6, the survivor count [2] is reported as 0 of 6 and the survivor count [3] is reported as 0 of 6.
In the case of `N=C(N)N=Nc1c(O)[nH]c(=O)[nH]c1=O`, the survivor count (T/C endpoint: mean survival time, dose: 240.0 mg/kg/injection, schedule: Q01DX Z (ip), vehicle: carboxymethylcellulose (CMC)) is reported as 6 of 6 and the survivor count (T/C endpoint: mean survival time, dose: 480.0 mg/kg/injection, schedule: Q01DX Z (ip), vehicle: carboxymethylcellulose (CMC)) is reported as 0 of 6.
For `NNC(=O)c1cnccn1`, the T/C (T/C endpoint: mean survival time, dose: 100.0 mg/kg/injection, schedule: Q01DX015 (ip), vehicle: water) was 131 % of control, the survivor count (T/C endpoint: mean survival time, dose: 128.0 mg/kg/injection, schedule: Q01DX015 (ip), vehicle: water) was 0 of 6 and the survivor count (T/C endpoint: mean survival time, dose: 200.0 mg/kg/injection, schedule: Q01DX001 (ip), vehicle: water) was 0 of 4. For the same compound, the survivor count (T/C endpoint: mean survival time, dose: 256.0 mg/kg/injection, schedule: Q01DX015 (ip), vehicle: water) was 0 of 6 and the survivor count (T/C endpoint: mean survival time, dose: 400.0 mg/kg/injection, schedule: Q01DX001 (ip), vehicle: water) was 0 of 4.
`CC1(C)N=C(N)N=C(N)N1c1cccc(OCCCc2ccccc2)c1` was tested, and the survivor count (T/C endpoint: mean survival time, dose: 100.0 mg/kg/injection, schedule: Q01DX001 (ip), vehicle: Klucel (hydroxypropylcellulose) (HPC)) was 0 of 6, the survivor count (T/C endpoint: mean survival time, dose: 200.0 mg/kg/injection, schedule: Q01DX001 (ip), vehicle: Klucel (hydroxypropylcellulose) (HPC)) was 0 of 6 and the survivor count (T/C endpoint: mean survival time, dose: 400.0 mg/kg/injection, schedule: Q01DX001 (ip), vehicle: Klucel (hydroxypropylcellulose) (HPC)) was 0 of 6.
For `CSc1nc(N)nc2c1nnn2C1OC(CO)C(O)C1O` (stereo not given), the survivor count (T/C endpoint: mean survival time, dose: 400.0 mg/kg/injection, schedule: Q01DX001 (ip), vehicle: saline) was 1 of 6.
With `CCOC(=O)c1c[nH]c2oc(/C=N/N3CC(CN4CCOCC4)OC3=O)cc2c1=O` (stereo not given) the T/C (T/C endpoint: median survival time, dose: 100.0 mg/kg/injection, schedule: Q01DX009 (ip), vehicle: acid diluted with saline) was 130 % of control and the T/C (T/C endpoint: median survival time, dose: 400.0 mg/kg/injection, schedule: Q01DX009 (ip), vehicle: acid diluted with saline) was 130 % of control.
For `CC(=O)N1C=Cn2c(cnc2C)C1O` (stereo not given), the survivor count (T/C endpoint: mean survival time, dose: 400.0 mg/kg/injection, schedule: Q01DX009 (ip), vehicle: water) was 0 of 6.
`COc1ccc(OC)c2c1CCCC21OCCO1` was tested, and the survivor count (T/C endpoint: mean survival time, dose: 400.0 mg/kg/injection, schedule: Q01DX001 (ip), vehicle: saline with Tween-80) was 6 of 6.
